Assay results as given in patent US20240390438A1, “PROBIOTICS SEPARATED FROM RABBIT FECES AND FOOD CONTAINING PROBIOTICS” (AGENT Innovation Co., Ltd., priority 2021, published 2024).
For some assays here: At least one read-out could not be matched to a standard name with certainty. For some assays here: At least one structure is not confirmed: it was looked up by name or label, or the drawing left a doubt.

Tests used:
species L. plantarum = details: EFSA (2005); cited from earlier work
L. pl 24-5D = details: from Georgieva et al., 2015; cited from earlier work
L. plantarum 299v = details: from Klarin et al., 2019; cited from earlier work
L. pl 24-2L = details: from Georgieva et al., 2015; cited from earlier work
L. plantarum 299 = details: from Klarin et al., 2019; cited from earlier work
Colony LP19 = assay: Antibiotic susceptibility test; type: cell-based, Lactiplantibacillus Plantarum; details: 96-well, 37 C 24 h, OD600
From the text: (§1) To test bacterial susceptibility to antibiotics, such as Aminoglycosides antibiotics, Sulfonamide antibiotics, Quinolone antibiotics, Ampicillin, Cefotaxime, Chloramphenicol, Erythromycin, Rifampicin and Tetracycline, the experimental protocol were as follow. Further, the Quinolone antibiotics comprise Ciprofloxacin, the Aminoglycosides antibiotics comprise Kanamycin and […], and the Sulfonamide antibiotics comprise Sulfamethoxazole. […] The initial absorbance at 600 nm (OD600) of each well was recorded. Then, the 96-well plates were placed at 37° C. and cultured for 24 hours. Next, the OD600 of each well was measured again to determine minimum inhibitory concentration.

Colony LP5 = assay: Antibiotic susceptibility test; type: cell-based, Lactiplantibacillus Plantarum; details: 96-well, 37 C 24 h, OD600
From the text: as §1

Colony LP2 = assay: Antibiotic susceptibility test; type: cell-based, Lactiplantibacillus Plantarum; details: 96-well, 37 C 24 h, OD600
From the text: as §1

Colony PTA22 = assay: Antibiotic susceptibility test; type: cell-based, Lactiplantibacillus Plantarum; details: 96-well, 37 C 24 h, OD600
From the text: as §1

Colony LP1 = assay: Antibiotic susceptibility test; type: cell-based, Lactiplantibacillus Plantarum; details: 96-well, 37 C 24 h, OD600
From the text: as §1

SMILES | EFSA, MIC breakpoints species L. plantarum (species L. plantarum) [µg/mL] | Minimum inhibitory concentration of the antibiotic to L. pl 24-5D (L. pl 24-5D) [µg/mL] | Minimum inhibitory concentration of the antibiotic to L. plantarum 299v (L. plantarum 299v) [µg/mL] | Minimum inhibitory concentration of the antibiotic to L. pl 24-2L (L. pl 24-2L) [µg/mL] | Minimum inhibitory concentration of the antibiotic to L. plantarum 299 (L. plantarum 299) [µg/mL] | Minimum inhibitory concentration of the antibiotic to LP19 (Colony LP19) [µg/mL] | Minimum inhibitory concentration of the antibiotic to LP5 (Colony LP5) [µg/mL] | Minimum inhibitory concentration of the antibiotic to LP2 (Colony LP2) [µg/mL] | Minimum inhibitory concentration of the antibiotic to PTA22 (Colony PTA22) [µg/mL] | Minimum inhibitory concentration of the antibiotic to LP1 (Colony LP1) [µg/mL]
CN(C)[C@@H]1C(O)=C(C(N)=O)C(=O)[C@@]2(O)C(O)=C3C(=O)c4c(O)cccc4[C@@](C)(O)[C@H]3C[C@@H]12 [Tetracycline] | 32 | – | – | – | – | – | – | – | – | –
NC[C@H]1O[C@H](O[C@H]2[C@H](O)[C@@H](O[C@H]3O[C@H](CO)[C@@H](O)[C@H](N)[C@H]3O)[C@H](N)C[C@@H]2N)[C@H](O)[C@@H](O)[C@@H]1O [Kanamycin] | 64 | 48 | >256 | 32 | >256 | – | – | – | – | –
O=C(O)c1cn(C2CC2)c2cc(N3CCNCC3)c(F)cc2c1=O [Ciprofloxacin] | – | – | – | – | – | 256 | 128 | 128 | 256 | 256
